These are yes or no findings as the source states them, for the method shown. For some assays here: A result given as binding can be weak or reduced; the word gives no strength. For some assays here: Binding seen in cells or lysates may run through a third protein. For some assays here: Sequences can lack the tags named with a protein.
B1: HA-epitope-tagged GRG5/AES (natural protein, human, UniProt Q08117 1-197, looked up)
chain: MMFPQSRHSGSSHLPQQLKFTTSDSCDRIKDEFQLLQAQYHSLKLECDKLASEKSEMQRHYVMYYEMSYGLNIEMHKQAEIVKRLNGICAQVLPYLSQEHQQQVLGAIERAKQVTAPELNSIIRQQLQAHQLSQLQALALPLTPLPVGLQPPSLPAVSAGTGLLSLSALGSQAHLSKEDKNGHDGDTHQEDDGEKSD

Amino acid sequences for entries named in this document (tags omitted). A change or cut given only in a name is not applied to a line headed by its entry. Residues count along the entry.
UniProt Q9NQB0: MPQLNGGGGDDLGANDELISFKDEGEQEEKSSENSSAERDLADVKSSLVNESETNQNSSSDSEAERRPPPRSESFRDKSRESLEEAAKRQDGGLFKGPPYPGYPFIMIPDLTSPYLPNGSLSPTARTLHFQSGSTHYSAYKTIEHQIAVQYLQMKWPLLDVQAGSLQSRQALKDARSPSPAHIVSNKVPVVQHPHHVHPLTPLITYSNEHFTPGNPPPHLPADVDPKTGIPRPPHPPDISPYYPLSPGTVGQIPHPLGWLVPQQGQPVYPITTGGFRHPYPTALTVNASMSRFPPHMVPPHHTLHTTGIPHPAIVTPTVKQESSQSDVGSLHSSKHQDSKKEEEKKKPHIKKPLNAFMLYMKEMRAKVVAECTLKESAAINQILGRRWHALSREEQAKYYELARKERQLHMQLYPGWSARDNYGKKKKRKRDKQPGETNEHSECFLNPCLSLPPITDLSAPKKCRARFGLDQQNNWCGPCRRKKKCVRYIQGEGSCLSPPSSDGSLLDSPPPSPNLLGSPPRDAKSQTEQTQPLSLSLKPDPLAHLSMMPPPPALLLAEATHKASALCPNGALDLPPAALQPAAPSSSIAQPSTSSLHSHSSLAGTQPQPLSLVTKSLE
UniProt Q04727, residues 1-221: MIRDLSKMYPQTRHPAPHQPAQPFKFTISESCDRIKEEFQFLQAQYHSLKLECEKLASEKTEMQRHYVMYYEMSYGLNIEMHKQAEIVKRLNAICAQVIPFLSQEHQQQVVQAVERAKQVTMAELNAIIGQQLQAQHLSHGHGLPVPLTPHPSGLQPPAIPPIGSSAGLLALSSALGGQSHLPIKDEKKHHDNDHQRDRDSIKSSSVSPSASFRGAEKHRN

Legend:
[1] = biological target: Gal4 DNA-binding domain fusion of TCF4_(130-240) with the LVPQ motif deleted (human) (UniProt Q9NQB0); experiment: two-hybrid; yeast AH109 co-transformed with Gal4-BD bait and Gal4-AD prey plasmids; ADE2 reporter, growth on SC-Leu-Trp-Ade medium
[2] = biological target: Gal4 DNA-binding domain fusion of TCF4_(130-220) (human) (UniProt Q9NQB0); experiment: as above
[3] = biological target: Gal4 DNA-binding domain fusion of TCF4_(130-240) (human) (UniProt Q9NQB0); experiment: as above
[4] = biological target: Myc-tagged TCF4_(7-387) (human) (UniProt Q9NQB0); experiment: co-IP; whole-cell extracts of co-transfected HEK293 cells; IP with anti-Myc antibody and Protein G-Sepharose, 4 °C; washes with lysis buffer (140 mM NaCl, 1% Triton X-100, 1% Nonidet P-40, pH 7.4); Western blot with anti-HA
[5] = biological target: Myc-tagged full-length TCF4 (human, UniProt Q9NQB0-8 1-596); experiment: as above

| Molecule | binding [1] | binding [2] | binding [3] | binding [4] | binding [5] |
| --- | --- | --- | --- | --- | --- |
| Gal4 activation domain fusion of GRG4-QGP (GRG4_(1-221), prey ACT-GRG4-QGP) (from UniProt Q04727 1-221) (domain or fragment) | binds | no binding | binds |  |  |
| B1 |  |  |  | binds | binds |
